# Results are given in words; binding and its absence hold for the method and conditions named. In cells and extracts the contact can be indirect. A yes stands for co-enrichment or nearness to the bait. Other partners may have been found. Tags and fused reporters may be left off the sequences shown.
# T1: GFP-tagged CTCF[1-293] (N terminus) (GFP-3C-bait-3C-His6) (D. melanogaster) (UniProt Q9VS55)
# T1 sequence: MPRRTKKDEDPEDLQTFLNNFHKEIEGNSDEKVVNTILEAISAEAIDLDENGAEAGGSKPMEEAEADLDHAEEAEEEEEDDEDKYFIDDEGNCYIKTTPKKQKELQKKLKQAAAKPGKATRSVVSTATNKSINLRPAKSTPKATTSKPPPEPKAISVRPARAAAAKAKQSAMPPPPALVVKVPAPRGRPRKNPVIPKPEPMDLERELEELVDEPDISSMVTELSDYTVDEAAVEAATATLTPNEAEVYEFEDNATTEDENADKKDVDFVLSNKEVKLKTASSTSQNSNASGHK
# T2: GFP-tagged full-length Cp190[1-1096] bait (GFP-3C-Cp190-3C-His6) (D. melanogaster) (UniProt Q24478)
# T2 sequence: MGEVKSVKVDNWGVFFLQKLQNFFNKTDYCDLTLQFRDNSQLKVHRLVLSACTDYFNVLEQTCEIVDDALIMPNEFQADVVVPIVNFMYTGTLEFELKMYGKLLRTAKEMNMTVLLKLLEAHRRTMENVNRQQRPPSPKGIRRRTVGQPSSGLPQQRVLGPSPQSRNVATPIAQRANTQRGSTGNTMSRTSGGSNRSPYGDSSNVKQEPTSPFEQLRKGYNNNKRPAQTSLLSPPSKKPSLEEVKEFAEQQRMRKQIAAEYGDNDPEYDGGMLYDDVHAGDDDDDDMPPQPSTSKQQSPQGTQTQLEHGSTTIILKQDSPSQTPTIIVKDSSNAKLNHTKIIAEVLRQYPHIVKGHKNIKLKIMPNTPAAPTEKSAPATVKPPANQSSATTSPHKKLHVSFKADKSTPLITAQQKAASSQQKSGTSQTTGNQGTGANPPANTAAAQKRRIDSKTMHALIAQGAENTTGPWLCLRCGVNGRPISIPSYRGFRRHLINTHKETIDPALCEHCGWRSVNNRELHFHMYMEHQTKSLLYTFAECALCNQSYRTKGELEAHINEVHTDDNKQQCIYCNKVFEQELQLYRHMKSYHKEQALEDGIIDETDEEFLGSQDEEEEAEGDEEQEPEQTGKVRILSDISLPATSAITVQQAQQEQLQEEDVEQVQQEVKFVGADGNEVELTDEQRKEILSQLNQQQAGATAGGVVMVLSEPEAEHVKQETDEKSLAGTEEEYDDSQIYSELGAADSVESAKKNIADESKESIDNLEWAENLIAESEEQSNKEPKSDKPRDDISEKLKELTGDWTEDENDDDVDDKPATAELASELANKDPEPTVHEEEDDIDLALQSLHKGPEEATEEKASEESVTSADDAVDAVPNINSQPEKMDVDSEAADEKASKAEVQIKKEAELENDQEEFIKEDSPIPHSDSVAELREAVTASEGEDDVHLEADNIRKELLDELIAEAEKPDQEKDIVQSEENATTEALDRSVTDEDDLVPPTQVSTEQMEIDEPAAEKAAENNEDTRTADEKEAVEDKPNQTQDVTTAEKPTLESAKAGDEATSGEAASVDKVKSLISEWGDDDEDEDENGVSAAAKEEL
# T3: GFP-tagged Su(Hw)[1-219] (N terminus) (GFP-3C-bait-3C-His6) (D. melanogaster) (UniProt P08970)
# T3 sequence: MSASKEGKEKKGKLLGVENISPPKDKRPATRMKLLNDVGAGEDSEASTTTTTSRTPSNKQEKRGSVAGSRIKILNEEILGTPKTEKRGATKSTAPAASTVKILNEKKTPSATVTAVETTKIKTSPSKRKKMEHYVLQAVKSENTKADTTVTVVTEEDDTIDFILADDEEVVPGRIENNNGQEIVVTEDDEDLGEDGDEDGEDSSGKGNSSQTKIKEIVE
# Columns and labels:
# Assay in all cases: affinity purification with mass spectrometry; purified GFP-3C-bait-3C-His6 immobilised on GFP binder beads, incubated with 6 mg Drosophila embryo nuclear extract in IP buffer (50 mM tris-Cl pH 7.5, 150 mM potassium acetate, 2 mM MgCl2, 10% glycerol, 0.1 mM DTT, 0.2% IGEPAL), 3 hours at 4°C; eluted with 3C protease; enrichment over a GFP-tagged Xenopus Nse I control bait; biological duplicates; only the target purified
# [1] = molecular target: T1, GFP-tagged CTCF[1-293] (N terminus) (GFP-3C-bait-3C-His6) (D. melanogaster)
# [2] = molecular target: T2, GFP-tagged full-length Cp190[1-1096] bait (GFP-3C-Cp190-3C-His6) (D. melanogaster)
# [3] = molecular target: T3, GFP-tagged Su(Hw)[1-219] (N terminus) (GFP-3C-bait-3C-His6) (D. melanogaster)
binding [1],binding [2],binding [3],Molecule
binds,binds,–,"SA (cohesin subunit), endogenous"
–,binds,–,"SMC1 (cohesin subunit), endogenous"
–,binds,–,"SMC3 (cohesin subunit), endogenous"
binds,binds,–,"vtd (cohesin subunit), endogenous"
–,binds,–,"Ibf1 (insulator binding factor 1), endogenous (protein, UniProt Q9VHG5 1-242) MPRKKSEDFYRTHGFTANLENGKYSATCHFCEKVLQNTALSRLSLHRQTCDARRSRSAVVYTSADEKDHDEAPRIKIQKISGDDDGGLDNANEGKEIIVKIQQILDDADEAEAPKEQPRVKREIRKRKLTKTEESGEQNLEFEISNVEIKNPEYSEYLDESKEHYILQQNPDDLANGSATIIEARPRNGLAALRAEKARAEISQFQSKTKFLKTETDNLKVERTLTLLKIQKLRLEIDALRD"
–,binds,–,"Ibf2, endogenous (protein, UniProt Q9VHG6 1-195) MSQAKKAKRPSGLSKDETWKKLGFLPAFKGGKDGEPKKYRALCTHCRKCQSNTSIDRLIIHRKSCLKFREDLTAEFGIKVEATDAAPAEQSSSGSTIDFTSNILLDKLIDEDDSSARNQESNLVSYLTDLDQLVIPSSDANRLQKDLIKAETEYLVVKSEYFTKMNEISELKRTVTLLEAKKTQLEIAKLRAECE"
–,binds,binds,"Su(Hw) (suppressor of Hairy-Wing), endogenous (protein, UniProt P08970 1-941) MSASKEGKEKKGKLLGVENISPPKDKRPATRMKLLNDVGAGEDSEASTTTTTSRTPSNKQEKRGSVAGSRIKILNEEILGTPKTEKRGATKSTAPAASTVKILNEKKTPSATVTAVETTKIKTSPSKRKKMEHYVLQAVKSENTKADTTVTVVTEEDDTIDFILADDEEVVPGRIENNNGQEIVVTEDDEDLGEDGDEDGEDSSGKGNSSQTKIKEIVEHVCGKCYKTFRRVQSLKKHLEFCRYDSGYHLRKADMLKNLEKIEKDAVVMEKKDICFCCSESYDTFHLGHINCPDCPKSFKTQTSYERHIFITHSEFSDFPCSICNANLRSEALLALHEEQHKSRGKPYACKICGKDFTRSYHLKRHQKYSSCSSNETDTMSCKVCDRVFYRLDNLRSHLKQHLGTQVVKKPEYMCHTCKNCFYSLSTLNIHIRTHTGEKPFDCDLCDKKFSALVALKKHRRYHTGEKPYSCTVCNQAFAVKEVLNRHMKRHTGERPHKCDECGKSFIQATQLRTHSKTHIRPFPCEQCDEKFKTEKQLERHVKTHSRTKRPVFSCAECKRNFRTPALLKEHMDEGKHSPKQQRSSMRSAVKIMERTDCAICDKNFDSSDTLRRHIRTVHECDPDDIFGVEPHPSKRAKKDIESEEVVPVALNTSAGSLISSQTDGNGVVVREFLVDEGDGAAQTITLENETYTILPLDGAIEGEQLTDEAGVKPEAKKEEAQVSPVVKKEQRKSLAASLAAAIADNLEESCSEDDFSGEILTEEDIKLKENVGKLIDMLVDPPILKKYGWPNAPEETVLCKVIENCGHDLTKGGENYAELDYGSRMREYCKLLFTVVIHNDSIKSLLNNFPIDDVIEYVLGDEDQDEGGLDKDNESHSGDEEAVSVTGETKTNEIREKPEKKEVSAKSEKKEIVGKAVDKDNSEEVVRENKKKPVGEQEKA"
–,binds,–,"pita, endogenous (protein, UniProt Q95RQ8 1-683) MAAKLEVREAMLTEKRVCRFCLTEQKLASIFEENPRVKTTANLPLQIMAITAIEVYAGDGMPGHICLECRLLFEHCYRFKQMCKRAETLLRQYPLTGNWPSPLEKPRAPMTMVASKKLLVVPAKTAEPSETPKKLLNTMAKSSSQVIIEDVQVLESAMVTPRTVAGSSPVPRRSHAYELKVDNNQELSMDDVQSMLEDMASELEKEFPDIPQKASPVKPKVLNKSSIRILNKGPAAPVEPRLATPKVKRDDSGNVAIVTEVLDSDLPLDDQDDPTKNAEKVATDVFPCPDCERSFPLQQLLEIHRLNHTRSRSFQCLLCEKSFFSKYDLAKHNFVHTGERPFKCAICSKAFTRKALLHRHERTHTDVPKFICVYCEKPFLSRQEMEKHAERHQKKRPFQCGVCTKSFAFKQGLERHETVHSTNLPFPCQHCERSFSTASKLARHLVAHAGKRAYPCKYCHKSYMLSHHLSRHLRTHTQTSDASFVCSECKVSYSNYNDLLDHALIHATASLKCPMCRKQIEDIDSVESHMDQHKQSERHACEFCDHIFLTQKCLQRHIEDDHVVEMEPYQNEFEDDGEGEGGVDEKEEHLDDFEDMDNVKQEEFVTEYLEDDALYEDHLDDSDESFTPPPPKQRKTNPPKDAQQSVRQTRSRDAQRITQKTGKNEGKPHHKLERNLKNRRSAK"
–,binds,–,"CTCF, endogenous (protein, UniProt Q9VS55 1-818) MPRRTKKDEDPEDLQTFLNNFHKEIEGNSDEKVVNTILEAISAEAIDLDENGAEAGGSKPMEEAEADLDHAEEAEEEEEDDEDKYFIDDEGNCYIKTTPKKQKELQKKLKQAAAKPGKATRSVVSTATNKSINLRPAKSTPKATTSKPPPEPKAISVRPARAAAAKAKQSAMPPPPALVVKVPAPRGRPRKNPVIPKPEPMDLERELEELVDEPDISSMVTELSDYTVDEAAVEAATATLTPNEAEVYEFEDNATTEDENADKKDVDFVLSNKEVKLKTASSTSQNSNASGHKYSCPHCPYTASKKFLITRHSRSHDVEPSFKCSICERSFRSNVGLQNHINTHMGNKPHKCKLCESAFTTSGELVRHTRYKHTKEKPHKCTECTYASVELTKLRRHMTCHTGERPYQCPHCTYASQDMFKLKRHMVIHTGEKKYQCDICKSRFTQSNSLKAHKLIHSVVDKPVFQCNYCPTTCGRKADLRVHIKHMHTSDVPMTCRRCGQQLPDRYQYKLHVKSHEGEKCYSCKLCSYASVTQRHLASHMLIHLDEKPFHCDQCPQAFRQRQLLRRHMNLVHNEEYQPPEPREKLHKCPSCPREFTHKGNLMRHMETHDDSANAREKRRRLKLGRNVRLQKDGTVITLIKDQYVDMDRDQEENEEDDNPESYDLAEIEPENSEAEDADDDVETIVSDPIRQRIKPAPIIINKQARLAASEKQPMIINQRLRSQRGTKTFHIKEEPDNSDFTVEWQGDDGEVMVVELVNGDEEVLVKHEPSANSKISAKNCFGFEDDDDYEEYGDGENEVDGASQEFLQLMDMIEQDS"
–,binds,–,"ZIPIC (zinc-finger protein interacting with CP190), endogenous (protein, UniProt Q9VAB8 1-457) MNCCICQFSVRVPKDIHTDTVGHPPVLISELVLQCTRGTNYVLTEESSTICKKCCEKLARYHKSIQIARKLRGEILELIHSPYMSKDHKQTSYKEDDLDRETTISKFDGNIEEAQQQDEEEQELESVGTTVTLVGPAGIVEEVAEEEHTFIIKQSEEEDEFHSVDLELDIDNEIIINEEEAHEVEEVAHEIEEVAHEIEEEDLLPHDKQEAQEEDFFKEDTMSDFDEHLDGAIEYIISDGEDQEQDNESSGEYTVNIQCPSCPEKFSSRRAYNVHTKREHFPGYVCDQCGKTLQSYSGFIGHLQNHEPVKQFACPVCPERFSRKFRLKHHMAWHSGETPYQCDVCSKRFVHKVALYKHKMIHDSETKRLECQVCGFKTRTKAHLERHMRSHTGDKPFACPVCNKRFSQMYNMKAHLREHESPGTNRHRRFHCSKCTHTFINEQNYDAHVQRDDCTPV"

# From article PMC9106302
